These are yes or no findings as the source states them, for the method shown. Some results given as binding are weak or reduced against the parent protein; the word gives no strength. Sequences can lack the tags named with a protein.
Target: T1, QN, N-terminal fragment of collagen ColQ containing the proline-rich motif (PRAD), with a flag epitope at the C-terminus (UniProt Q03637)
T1 sequence: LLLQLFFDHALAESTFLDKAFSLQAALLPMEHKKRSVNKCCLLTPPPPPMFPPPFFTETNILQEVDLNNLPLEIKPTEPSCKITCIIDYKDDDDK
Assay: co-expression of AChET and QN in COS cells; sedimentation of secreted forms

Chains of the proteins cited; added tags and fusions are not shown. Lines headed by an entry give the natural chain unless they say otherwise; changes in a name come on top.
UniProt P07692: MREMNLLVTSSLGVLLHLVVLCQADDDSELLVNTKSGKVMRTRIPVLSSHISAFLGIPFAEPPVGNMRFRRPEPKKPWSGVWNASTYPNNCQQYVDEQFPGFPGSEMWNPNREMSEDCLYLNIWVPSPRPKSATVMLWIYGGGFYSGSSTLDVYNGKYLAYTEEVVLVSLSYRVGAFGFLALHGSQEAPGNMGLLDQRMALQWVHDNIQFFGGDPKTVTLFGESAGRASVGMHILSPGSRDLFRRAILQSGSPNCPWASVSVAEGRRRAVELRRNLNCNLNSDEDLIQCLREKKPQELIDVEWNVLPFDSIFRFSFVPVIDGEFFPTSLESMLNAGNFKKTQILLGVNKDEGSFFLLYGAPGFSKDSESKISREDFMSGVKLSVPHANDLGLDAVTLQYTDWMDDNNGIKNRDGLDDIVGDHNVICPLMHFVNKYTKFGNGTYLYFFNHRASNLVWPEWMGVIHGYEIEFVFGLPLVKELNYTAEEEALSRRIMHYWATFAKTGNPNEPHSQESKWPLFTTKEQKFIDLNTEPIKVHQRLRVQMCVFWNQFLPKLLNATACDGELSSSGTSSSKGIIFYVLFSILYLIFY

## wild type Torpedo AChET (from UniProt P07692 25-559) (enzyme)
  binding: binds

From patent US20080241172A1
